Assay results reported in paper PMC6946564.
No constants are given. Whether binding was seen depends on the method and setting. Some entries that bind do so weakly or less than the wild type.

Molecular target: APOBEC3G (A3G), wild type, Q9HC16
Experiment: optical tweezers (ssDNA extension at constant force); single 8.1 knt ssDNA tethered between two beads and held at a constant force (10-80 pN); 50 nM A3G flowed in for 100 s, then protein-free buffer; 10 mM HEPES, 50 mM Na+, pH 7.5 (also 50 mM Na+/10 mM Mg and 150 mM Na+/1 mM Mg at 20 pN); oligomerization of ssDNA-bound A3G is inferred from the lack of dissociation after free protein is removed; both purified
Details: remark: other sources report otherwise

B1: APOBEC3G (A3G), wild type, Q9HC16 1-384 (enzyme)
chain: MKPHFRNTVERMYRDTFSYNFYNRPILSRRNTVWLCYEVKTKGPSRPPLDAKIFRGQVYSELKYHPEMRFFHWFSKWRKLHRDQEYEVTWYISWSPCTKCTRDMATFLAEDPKVTLTIFVARLYYFWDPDYQEALRSLCQKRDGPRATMKIMNYDEFQHCWSKFVYSQRELFEPWNNLPKYYILLHIMLGEILRHSMDPPTFTFNFNNEPWVRGRHETYLCYEVERMHNDTWVLLNQRRGFLCNQAPHKHGFLEGRHAELCFLDVIPFWKLDLDQDYRVTCFTSWSPCFSCAQEMAKFISKNKHVSLCIFTARIYDDQGRCQEGLRTLAEAGAKISIMTYSEFKHCWDTFVDHQGCPFQPWDGLDEHSQDLSGRLRAILQNQEN
binding: binds
